Experimental data as given in the supplement of paper PMC10849652.
This is one part of the list.

Amino acid sequences for entries named in this document (tags omitted). A change or cut given only in a name is not applied to a line headed by its entry.
UniProt Q9BV73: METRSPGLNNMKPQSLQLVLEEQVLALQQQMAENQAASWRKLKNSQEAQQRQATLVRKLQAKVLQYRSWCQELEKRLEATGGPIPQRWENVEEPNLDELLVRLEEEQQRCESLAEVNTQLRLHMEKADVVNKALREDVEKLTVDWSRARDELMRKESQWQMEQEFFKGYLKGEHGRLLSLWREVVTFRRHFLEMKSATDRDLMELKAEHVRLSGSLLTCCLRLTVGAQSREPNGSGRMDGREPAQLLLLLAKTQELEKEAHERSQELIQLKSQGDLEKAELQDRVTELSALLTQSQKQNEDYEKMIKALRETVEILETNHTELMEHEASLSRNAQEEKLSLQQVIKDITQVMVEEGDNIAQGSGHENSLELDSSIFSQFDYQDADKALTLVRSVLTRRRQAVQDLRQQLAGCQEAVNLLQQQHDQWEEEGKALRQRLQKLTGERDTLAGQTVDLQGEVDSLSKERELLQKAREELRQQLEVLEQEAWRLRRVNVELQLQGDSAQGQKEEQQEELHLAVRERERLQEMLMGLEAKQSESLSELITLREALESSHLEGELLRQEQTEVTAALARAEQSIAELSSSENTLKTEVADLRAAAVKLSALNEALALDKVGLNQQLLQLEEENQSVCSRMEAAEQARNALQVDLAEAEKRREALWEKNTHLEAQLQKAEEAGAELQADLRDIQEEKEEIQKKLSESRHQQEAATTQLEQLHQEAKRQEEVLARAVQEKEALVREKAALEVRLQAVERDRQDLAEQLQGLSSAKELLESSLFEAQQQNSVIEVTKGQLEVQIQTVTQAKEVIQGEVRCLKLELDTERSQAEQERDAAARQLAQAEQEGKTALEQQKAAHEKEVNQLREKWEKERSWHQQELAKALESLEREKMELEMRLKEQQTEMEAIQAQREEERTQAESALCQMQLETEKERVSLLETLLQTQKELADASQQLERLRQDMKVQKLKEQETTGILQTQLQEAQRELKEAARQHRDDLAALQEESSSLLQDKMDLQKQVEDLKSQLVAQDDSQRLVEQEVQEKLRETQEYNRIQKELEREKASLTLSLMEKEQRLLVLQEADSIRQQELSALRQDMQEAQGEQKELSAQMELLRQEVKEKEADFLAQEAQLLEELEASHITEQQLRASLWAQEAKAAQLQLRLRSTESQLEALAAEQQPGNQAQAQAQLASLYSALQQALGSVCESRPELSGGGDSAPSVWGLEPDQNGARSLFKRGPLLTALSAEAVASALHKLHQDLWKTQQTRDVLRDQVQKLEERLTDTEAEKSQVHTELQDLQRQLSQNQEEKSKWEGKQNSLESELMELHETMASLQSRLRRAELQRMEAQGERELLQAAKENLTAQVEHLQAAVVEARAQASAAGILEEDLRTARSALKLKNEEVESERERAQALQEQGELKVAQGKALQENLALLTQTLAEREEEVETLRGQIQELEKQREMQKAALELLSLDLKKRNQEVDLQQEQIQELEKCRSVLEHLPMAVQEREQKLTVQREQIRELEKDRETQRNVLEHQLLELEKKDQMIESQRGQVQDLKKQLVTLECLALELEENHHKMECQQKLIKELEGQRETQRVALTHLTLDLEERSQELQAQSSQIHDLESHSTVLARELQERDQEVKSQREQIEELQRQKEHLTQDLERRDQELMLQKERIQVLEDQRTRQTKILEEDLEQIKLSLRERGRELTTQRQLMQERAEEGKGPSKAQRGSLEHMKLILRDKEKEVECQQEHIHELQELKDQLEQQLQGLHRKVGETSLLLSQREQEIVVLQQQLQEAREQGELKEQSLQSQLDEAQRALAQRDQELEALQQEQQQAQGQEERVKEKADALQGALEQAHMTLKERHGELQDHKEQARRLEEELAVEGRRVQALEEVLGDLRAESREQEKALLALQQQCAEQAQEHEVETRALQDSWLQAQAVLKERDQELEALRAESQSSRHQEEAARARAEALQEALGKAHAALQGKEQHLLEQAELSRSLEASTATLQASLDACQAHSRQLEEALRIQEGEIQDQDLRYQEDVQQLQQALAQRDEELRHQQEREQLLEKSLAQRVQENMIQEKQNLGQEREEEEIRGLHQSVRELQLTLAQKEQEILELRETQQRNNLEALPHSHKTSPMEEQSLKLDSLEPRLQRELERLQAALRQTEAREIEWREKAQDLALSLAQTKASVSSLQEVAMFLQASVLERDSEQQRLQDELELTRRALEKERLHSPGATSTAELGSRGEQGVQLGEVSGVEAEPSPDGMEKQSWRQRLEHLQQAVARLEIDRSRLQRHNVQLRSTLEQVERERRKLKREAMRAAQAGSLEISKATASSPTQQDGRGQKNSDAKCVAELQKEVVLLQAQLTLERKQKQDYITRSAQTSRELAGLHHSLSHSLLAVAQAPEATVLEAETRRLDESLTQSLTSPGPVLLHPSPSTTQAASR
UniProt O60508: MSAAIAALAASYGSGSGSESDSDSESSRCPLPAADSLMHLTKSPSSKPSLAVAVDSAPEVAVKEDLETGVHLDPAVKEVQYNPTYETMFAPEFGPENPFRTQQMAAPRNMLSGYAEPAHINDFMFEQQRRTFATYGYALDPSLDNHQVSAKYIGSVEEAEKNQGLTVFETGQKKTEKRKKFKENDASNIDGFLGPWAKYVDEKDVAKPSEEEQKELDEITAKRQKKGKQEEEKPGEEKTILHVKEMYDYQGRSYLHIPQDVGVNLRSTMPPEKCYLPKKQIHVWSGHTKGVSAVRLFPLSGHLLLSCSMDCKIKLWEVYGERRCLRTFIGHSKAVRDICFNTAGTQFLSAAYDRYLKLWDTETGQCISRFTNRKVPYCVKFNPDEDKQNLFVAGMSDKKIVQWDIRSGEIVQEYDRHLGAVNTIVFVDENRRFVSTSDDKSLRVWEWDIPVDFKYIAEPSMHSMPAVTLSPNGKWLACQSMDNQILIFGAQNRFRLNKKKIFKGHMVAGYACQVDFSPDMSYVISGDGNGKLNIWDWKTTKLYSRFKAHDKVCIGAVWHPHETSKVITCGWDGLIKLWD
UniProt P49336: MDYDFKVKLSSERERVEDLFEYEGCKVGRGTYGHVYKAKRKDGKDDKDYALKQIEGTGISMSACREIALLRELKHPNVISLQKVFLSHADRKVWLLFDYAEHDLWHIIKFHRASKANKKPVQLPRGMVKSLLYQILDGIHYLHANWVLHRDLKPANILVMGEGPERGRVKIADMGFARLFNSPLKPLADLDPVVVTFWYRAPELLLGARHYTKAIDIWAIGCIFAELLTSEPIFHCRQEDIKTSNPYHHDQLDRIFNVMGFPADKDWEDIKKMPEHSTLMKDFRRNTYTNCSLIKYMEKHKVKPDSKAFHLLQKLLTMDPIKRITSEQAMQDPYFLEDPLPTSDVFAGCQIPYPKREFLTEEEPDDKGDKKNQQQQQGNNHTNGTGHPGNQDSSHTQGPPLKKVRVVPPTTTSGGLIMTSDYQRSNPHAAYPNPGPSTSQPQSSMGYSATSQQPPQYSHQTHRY
UniProt P14209: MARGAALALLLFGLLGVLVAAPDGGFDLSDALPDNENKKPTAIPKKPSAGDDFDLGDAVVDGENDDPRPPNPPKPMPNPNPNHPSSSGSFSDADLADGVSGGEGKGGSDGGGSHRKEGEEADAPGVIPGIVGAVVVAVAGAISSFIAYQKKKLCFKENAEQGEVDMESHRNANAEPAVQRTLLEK
UniProt P11802: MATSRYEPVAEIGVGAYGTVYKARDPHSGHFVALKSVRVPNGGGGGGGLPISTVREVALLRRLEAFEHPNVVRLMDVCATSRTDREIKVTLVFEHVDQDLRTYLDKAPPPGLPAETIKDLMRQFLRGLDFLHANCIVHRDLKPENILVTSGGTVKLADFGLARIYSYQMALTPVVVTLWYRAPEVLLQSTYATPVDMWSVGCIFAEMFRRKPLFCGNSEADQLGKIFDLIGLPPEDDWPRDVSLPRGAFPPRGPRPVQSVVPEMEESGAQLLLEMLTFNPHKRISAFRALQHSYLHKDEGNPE
UniProt Q9HC77: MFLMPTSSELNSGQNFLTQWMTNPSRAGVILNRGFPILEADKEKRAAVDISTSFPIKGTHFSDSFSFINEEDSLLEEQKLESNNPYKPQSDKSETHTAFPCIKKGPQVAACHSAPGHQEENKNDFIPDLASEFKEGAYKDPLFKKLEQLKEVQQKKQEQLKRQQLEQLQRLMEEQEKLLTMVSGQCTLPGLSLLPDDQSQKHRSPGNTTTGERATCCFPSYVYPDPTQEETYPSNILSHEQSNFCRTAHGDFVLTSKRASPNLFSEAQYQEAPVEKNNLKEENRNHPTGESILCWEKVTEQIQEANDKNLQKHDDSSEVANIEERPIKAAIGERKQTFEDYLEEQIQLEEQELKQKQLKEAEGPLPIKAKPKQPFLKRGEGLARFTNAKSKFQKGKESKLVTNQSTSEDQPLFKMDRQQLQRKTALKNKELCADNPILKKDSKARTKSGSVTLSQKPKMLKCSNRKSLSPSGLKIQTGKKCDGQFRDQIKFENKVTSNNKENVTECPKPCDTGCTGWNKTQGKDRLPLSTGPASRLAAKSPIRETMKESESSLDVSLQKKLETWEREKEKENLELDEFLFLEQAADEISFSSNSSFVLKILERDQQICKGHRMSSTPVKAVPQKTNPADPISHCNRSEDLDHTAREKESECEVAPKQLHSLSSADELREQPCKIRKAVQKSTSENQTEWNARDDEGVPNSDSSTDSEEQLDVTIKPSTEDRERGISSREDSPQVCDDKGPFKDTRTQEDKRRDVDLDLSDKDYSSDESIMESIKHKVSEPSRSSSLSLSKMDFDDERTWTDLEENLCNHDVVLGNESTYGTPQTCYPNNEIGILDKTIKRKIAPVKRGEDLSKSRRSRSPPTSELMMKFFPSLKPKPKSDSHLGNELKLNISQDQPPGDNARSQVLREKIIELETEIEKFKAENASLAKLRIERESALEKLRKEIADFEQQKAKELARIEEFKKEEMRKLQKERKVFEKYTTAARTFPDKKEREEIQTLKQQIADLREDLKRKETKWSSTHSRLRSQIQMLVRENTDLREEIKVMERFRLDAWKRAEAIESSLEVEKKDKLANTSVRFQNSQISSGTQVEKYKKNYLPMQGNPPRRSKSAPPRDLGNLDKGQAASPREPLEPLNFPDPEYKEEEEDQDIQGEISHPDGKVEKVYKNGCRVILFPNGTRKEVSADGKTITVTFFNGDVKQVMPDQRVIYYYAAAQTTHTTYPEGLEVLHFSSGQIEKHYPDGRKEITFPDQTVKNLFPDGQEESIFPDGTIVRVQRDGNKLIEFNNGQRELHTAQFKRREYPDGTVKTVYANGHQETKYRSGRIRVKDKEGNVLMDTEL
UniProt A8MTT3: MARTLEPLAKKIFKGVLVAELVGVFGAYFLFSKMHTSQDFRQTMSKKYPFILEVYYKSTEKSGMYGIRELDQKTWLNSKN
UniProt Q86X02: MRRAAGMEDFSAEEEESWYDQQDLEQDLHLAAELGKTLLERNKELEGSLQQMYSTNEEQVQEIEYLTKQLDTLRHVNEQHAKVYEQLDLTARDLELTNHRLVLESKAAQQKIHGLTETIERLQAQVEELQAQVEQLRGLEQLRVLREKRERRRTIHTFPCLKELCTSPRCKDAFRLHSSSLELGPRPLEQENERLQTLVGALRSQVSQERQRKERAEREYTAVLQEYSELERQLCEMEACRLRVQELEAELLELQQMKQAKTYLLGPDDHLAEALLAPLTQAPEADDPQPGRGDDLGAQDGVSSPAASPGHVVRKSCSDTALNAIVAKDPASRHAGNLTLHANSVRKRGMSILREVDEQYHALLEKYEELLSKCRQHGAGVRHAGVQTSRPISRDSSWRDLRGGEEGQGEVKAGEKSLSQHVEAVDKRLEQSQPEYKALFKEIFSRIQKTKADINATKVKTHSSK
UniProt O00311: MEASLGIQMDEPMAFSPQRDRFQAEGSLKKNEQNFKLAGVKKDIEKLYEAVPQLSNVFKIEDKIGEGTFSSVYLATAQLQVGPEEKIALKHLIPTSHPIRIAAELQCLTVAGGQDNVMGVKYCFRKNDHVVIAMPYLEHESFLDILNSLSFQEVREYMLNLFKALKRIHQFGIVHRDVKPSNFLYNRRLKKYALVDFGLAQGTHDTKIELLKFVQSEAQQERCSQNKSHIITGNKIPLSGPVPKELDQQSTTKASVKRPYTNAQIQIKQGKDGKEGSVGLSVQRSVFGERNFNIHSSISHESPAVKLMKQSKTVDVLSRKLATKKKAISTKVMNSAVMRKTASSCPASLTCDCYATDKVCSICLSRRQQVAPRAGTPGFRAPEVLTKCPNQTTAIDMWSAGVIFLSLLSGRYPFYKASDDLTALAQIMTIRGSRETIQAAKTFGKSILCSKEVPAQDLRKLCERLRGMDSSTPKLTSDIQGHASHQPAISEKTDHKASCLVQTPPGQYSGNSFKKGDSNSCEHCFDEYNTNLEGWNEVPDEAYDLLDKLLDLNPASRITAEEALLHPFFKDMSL

Compound: C1=CC2=NC=CN=C2C=C1/C=C/3\C(=O)NC(=O)S3
Experiment: log2 fold change, soluble protein after heating vs DMSO (PISA); higher = thermal stabilisation; K562 lysate, 10 uM; active = over 0.2 and 3.5 SD of the protein, either way, in both replicates (recomputed)
Procedure, shortened: (§1)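 Values give the log-two fold change in thermal stability against solvent controls, from duplicates. Crude K562 extract at 1 mg/mL protein, made by dounce homogenisation in PBS pH 7.4 with 1 mM MgCl2, was treated with 10 μM compound for 30 min. After 3 min heating across 48°C-58°C, aliquots were pooled, adjusted to 0.5% NP-40 at 4°C and centrifuged at 21,000xg for 90 min. The supernatant was measured by TMTpro 16plex LC-MS/MS with channel sums equalised.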

log2 fold change, inactive:
CDCA5 (UniProt Q96FF9) -0.066
CDC42BPB (UniProt Q9Y5S2) 0.001
CEP250 (UniProt Q9BV73) -0.012
CDK2 (UniProt P24941) -0.003
CDCA2 (UniProt Q69YH5) -0.017

Compound: C1=CC=C(C=C1)C2=NC(=C(N2)C3=CC=NC=C3)C4=CC(=C(C=C4)Cl)O
Experiment: as above
Procedure, shortened: as §1

log2 fold change, inactive:
CDC40 (UniProt O60508) -0.072
CENPP (UniProt Q6IPU0) -0.011
CDK8 (UniProt P49336) 0.004
CDC42BPA isoform 6 (UniProt Q5VT25) -0.029
CD99 (UniProt P14209) 0.062
CFAP410 (UniProt O43822) 0.015
CDK4 (UniProt P11802) -0.008
CDKN1C (UniProt P49918) -0.032
CENPJ (UniProt Q9HC77) -0.003
CEP83 (UniProt Q9Y592) 0.049
CDC42EP4 (UniProt Q9H3Q1) 0.007
CEBPZOS (UniProt A8MTT3) -0.014
CEP85 isoform 2 (UniProt Q6P2H3) -0.006
CEP192 (UniProt Q8TEP8) 0.017
CDR2L (UniProt Q86X02) -0.012
CD82 (UniProt P27701) 0.001
CDC7 (UniProt O00311) -0.006
CDC37 (UniProt K7EKQ2) -0.007

Reprinted at random: two entries already listed.
log2 fold change, inactive:
CDC42BPA isoform 6 (UniProt Q5VT25) -0.029
CENPJ (UniProt Q9HC77) -0.003
